# doi:10.1101/2022.11.02.514824
# Results are given in words; binding and its absence hold for the method and conditions named. Some results given as binding are weak or reduced against the parent protein; the word gives no strength.
# T1: SEPT6 (human) (UniProt Q14141)
# T1 sequence: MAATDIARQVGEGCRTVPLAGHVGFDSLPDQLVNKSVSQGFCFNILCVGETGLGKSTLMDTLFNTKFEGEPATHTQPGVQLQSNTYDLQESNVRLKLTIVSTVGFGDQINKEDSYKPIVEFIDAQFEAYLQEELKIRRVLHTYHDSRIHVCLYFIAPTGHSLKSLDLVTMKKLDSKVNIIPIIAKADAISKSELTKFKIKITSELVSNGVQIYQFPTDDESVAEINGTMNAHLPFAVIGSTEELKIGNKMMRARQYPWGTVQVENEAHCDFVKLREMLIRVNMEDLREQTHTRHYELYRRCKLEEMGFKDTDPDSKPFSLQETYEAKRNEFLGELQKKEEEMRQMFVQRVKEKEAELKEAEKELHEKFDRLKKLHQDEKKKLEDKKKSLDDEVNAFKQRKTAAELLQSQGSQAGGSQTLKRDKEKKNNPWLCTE
# T2: SEPT7 (human) (UniProt Q16181)
# T2 sequence: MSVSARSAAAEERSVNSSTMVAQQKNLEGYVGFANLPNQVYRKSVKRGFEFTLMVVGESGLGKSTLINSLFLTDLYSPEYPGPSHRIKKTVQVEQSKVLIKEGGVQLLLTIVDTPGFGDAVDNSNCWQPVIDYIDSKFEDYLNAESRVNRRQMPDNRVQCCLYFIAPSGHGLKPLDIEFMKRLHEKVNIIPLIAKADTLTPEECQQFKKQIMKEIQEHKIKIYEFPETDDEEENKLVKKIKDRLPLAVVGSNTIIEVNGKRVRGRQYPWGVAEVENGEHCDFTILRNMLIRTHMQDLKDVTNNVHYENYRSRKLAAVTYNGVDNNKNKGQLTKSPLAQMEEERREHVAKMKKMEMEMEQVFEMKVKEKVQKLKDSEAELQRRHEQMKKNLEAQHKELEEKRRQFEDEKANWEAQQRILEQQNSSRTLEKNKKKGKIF
# T3: SEPT9_i1 (human), Q9UHD8
# T3 chain: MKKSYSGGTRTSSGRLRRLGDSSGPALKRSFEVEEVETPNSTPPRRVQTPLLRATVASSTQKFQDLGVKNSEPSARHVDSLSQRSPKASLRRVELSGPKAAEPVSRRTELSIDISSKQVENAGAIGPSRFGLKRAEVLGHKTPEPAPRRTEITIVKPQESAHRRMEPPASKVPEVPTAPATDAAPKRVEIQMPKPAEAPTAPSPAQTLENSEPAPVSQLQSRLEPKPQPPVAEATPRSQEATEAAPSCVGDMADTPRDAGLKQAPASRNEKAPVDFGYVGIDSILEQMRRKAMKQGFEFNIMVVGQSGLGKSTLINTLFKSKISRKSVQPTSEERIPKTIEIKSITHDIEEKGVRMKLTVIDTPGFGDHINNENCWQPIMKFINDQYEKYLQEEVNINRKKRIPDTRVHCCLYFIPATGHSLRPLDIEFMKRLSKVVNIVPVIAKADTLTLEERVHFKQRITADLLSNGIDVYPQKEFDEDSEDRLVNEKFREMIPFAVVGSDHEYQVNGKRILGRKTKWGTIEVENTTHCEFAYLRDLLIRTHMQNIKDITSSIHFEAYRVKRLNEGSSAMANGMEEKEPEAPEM
# Tests used:
# Test in all cases: co-purification of co-expressed subunits
# SEPT6 (human) = target: T1, SEPT6 (human)
# SEPT7 (human) = target: T2, SEPT7 (human)
# SEPT9_i1 (human), Q9UHD8 = target: T3, SEPT9_i1 (human), Q9UHD8; conditions: remark: other sources report otherwise
binder,measurement,setting,value
"SEPT7 (protein, UniProt Q16181 1-437) MSVSARSAAAEERSVNSSTMVAQQKNLEGYVGFANLPNQVYRKSVKRGFEFTLMVVGESGLGKSTLINSLFLTDLYSPEYPGPSHRIKKTVQVEQSKVLIKEGGVQLLLTIVDTPGFGDAVDNSNCWQPVIDYIDSKFEDYLNAESRVNRRQMPDNRVQCCLYFIAPSGHGLKPLDIEFMKRLHEKVNIIPLIAKADTLTPEECQQFKKQIMKEIQEHKIKIYEFPETDDEEENKLVKKIKDRLPLAVVGSNTIIEVNGKRVRGRQYPWGVAEVENGEHCDFTILRNMLIRTHMQDLKDVTNNVHYENYRSRKLAAVTYNGVDNNKNKGQLTKSPLAQMEEERREHVAKMKKMEMEMEQVFEMKVKEKVQKLKDSEAELQRRHEQMKKNLEAQHKELEEKRRQFEDEKANWEAQQRILEQQNSSRTLEKNKKKGKIF",binding,SEPT6 (human),binds
"SEPT9_i1 (protein, UniProt Q9UHD8 1-586) MKKSYSGGTRTSSGRLRRLGDSSGPALKRSFEVEEVETPNSTPPRRVQTPLLRATVASSTQKFQDLGVKNSEPSARHVDSLSQRSPKASLRRVELSGPKAAEPVSRRTELSIDISSKQVENAGAIGPSRFGLKRAEVLGHKTPEPAPRRTEITIVKPQESAHRRMEPPASKVPEVPTAPATDAAPKRVEIQMPKPAEAPTAPSPAQTLENSEPAPVSQLQSRLEPKPQPPVAEATPRSQEATEAAPSCVGDMADTPRDAGLKQAPASRNEKAPVDFGYVGIDSILEQMRRKAMKQGFEFNIMVVGQSGLGKSTLINTLFKSKISRKSVQPTSEERIPKTIEIKSITHDIEEKGVRMKLTVIDTPGFGDHINNENCWQPIMKFINDQYEKYLQEEVNINRKKRIPDTRVHCCLYFIPATGHSLRPLDIEFMKRLSKVVNIVPVIAKADTLTLEERVHFKQRITADLLSNGIDVYPQKEFDEDSEDRLVNEKFREMIPFAVVGSDHEYQVNGKRILGRKTKWGTIEVENTTHCEFAYLRDLLIRTHMQNIKDITSSIHFEAYRVKRLNEGSSAMANGMEEKEPEAPEM",binding,SEPT7 (human),binds
"SEPT9_i1, Q9UHD8 1-586 (protein) MKKSYSGGTRTSSGRLRRLGDSSGPALKRSFEVEEVETPNSTPPRRVQTPLLRATVASSTQKFQDLGVKNSEPSARHVDSLSQRSPKASLRRVELSGPKAAEPVSRRTELSIDISSKQVENAGAIGPSRFGLKRAEVLGHKTPEPAPRRTEITIVKPQESAHRRMEPPASKVPEVPTAPATDAAPKRVEIQMPKPAEAPTAPSPAQTLENSEPAPVSQLQSRLEPKPQPPVAEATPRSQEATEAAPSCVGDMADTPRDAGLKQAPASRNEKAPVDFGYVGIDSILEQMRRKAMKQGFEFNIMVVGQSGLGKSTLINTLFKSKISRKSVQPTSEERIPKTIEIKSITHDIEEKGVRMKLTVIDTPGFGDHINNENCWQPIMKFINDQYEKYLQEEVNINRKKRIPDTRVHCCLYFIPATGHSLRPLDIEFMKRLSKVVNIVPVIAKADTLTLEERVHFKQRITADLLSNGIDVYPQKEFDEDSEDRLVNEKFREMIPFAVVGSDHEYQVNGKRILGRKTKWGTIEVENTTHCEFAYLRDLLIRTHMQNIKDITSSIHFEAYRVKRLNEGSSAMANGMEEKEPEAPEM",binding,"SEPT9_i1 (human), Q9UHD8",binds
